Experimental data from patent US20140186427A1, “ORODISPERSIBLE FILMS FOR THE MANUFACTURING OF INDIVIDUALISED MEDICINE OR FOR LARGE SCALE PRODUCTION” (TESA LABTEC GMBH, priority 2011, published 2014).
For at least one compound, name, drawing or mass did not settle the structure.

Assay: Recrystallisation after printing: polarised microscopy and X-ray diffraction
Format: physicochemical
Conditions: printed ODF
Excerpt: X-ray diffractograms were collected for the drug-free film, the APIs and the ODFs after the fourth printing process using […], Netherland). Polarised micrographs and scanning electron micrographs were collected for the drug-free film and the ODFs after the fourth printing process using a DMLB microscope (Leica Microsystems, Cambridge, UK) and a LEO 1430 VP (Leo Elektron Microscopy, Cambridge, UK).

## CN1CC(=O)N2[C@H](c3ccc4c(c3)OCO4)c3[nH]c4ccccc4c3C[C@@H]2C1=O [Tadalafil]
  Recrystallisation / crystals after the printing process: crystals were detectable
